# How the values were obtained:
# primary AML samples = experiment: HLA class I ligandome analysis (W6/32 immunoaffinity purification, LC-MS/MS) of primary AML samples; set-up: species or system human; conditions: AML patients (n=15)
# [1] = test system: cancer tissues in comparison to non-cancerous tissues and organs; experiment: Presentation profile / over-presentation by label-free LC-MS (XPRESIDENT), tumor versus normal tissues, other proliferative diseases; set-up: species or system human; conditions: other proliferative diseases / organs (other than AML) that over- or exclusively present the peptide; Table 5
# [2] = HLA class I ligandome, count for the HLA ligand (LiTAP) or, on protein lines, for the source protein (LiTAA)
Substance,Number of positive AMLs (primary AML samples; [2]),Proliferative disease and location thereof [1],Number of positive AMLs (primary AML samples; HLA ligand (LiTAP))
36 (SLLYKVPYV; listed as Homo sapiens) [compound 36],1,"lung, non-small cell lung carcinoma, kidney, carcinoma",
273 (EVAKFLSFY; listed as Homo sapiens) [compound 273],,"kidney, clear cell renal cell carcinoma, kidney, angiomyolipoma",2
323 (KLYELHVFTF; listed as Homo sapiens) [compound 323],,"colon, adenoma",1
61 (MDKLVVEY; listed as Homo sapiens) [compound 61],2,"stomach, adenocarcinoma, pancreas, adenocarcinoma",
114 (DSISGNLQR; listed as Homo sapiens) [compound 114],1,"stomach, metastatic, bone, non-ossifying fibroma",
79 (ILWETVPSM; listed as Homo sapiens) [compound 79],1,"colon or rectum, metastatic renal cell carcinoma",
281 (LELIMSKY; listed as Homo sapiens) [compound 281],,"colon or rectum, ovary, thecoma-fibroma",1
169 (QVAGWGSQR; listed as Homo sapiens) [compound 169],1,"spleen, chronic myeloid leukemia",
122 (KEITEGKTV; listed as Homo sapiens) [compound 122],1,"stomach, metastatic, rectum, adenocarcinoma",
175 (NTASGGMTR; listed as Homo sapiens) [compound 175],1,"brain, glioblastoma, skin, squamous cell carcinoma",
201 (IPVVHASI; listed as Homo sapiens) [compound 201],1,"stomach, adenocarcinoma, colon, adenocarcinoma",
297 (EATSIKRVR; listed as Homo sapiens) [compound 297],,"colon or rectum, adenocarcinoma",2
153 (GAYGKVFLV; listed as Homo sapiens) [compound 153],1,"liver, hepatocellular carcinoma, kidney, angiomyolipoma",
123 (YRQKQVVIL; listed as Homo sapiens) [compound 123],2,"stomach, metastatic, rectum, adenocarcinoma",
286 (SENPSKHDSF; listed as Homo sapiens) [compound 286],,"stomach, metastatic, breast, carcinoma",1
108 (DTMGPSQHVY; listed as Homo sapiens) [compound 108],1,"lung, non-small cell lung carcinoma, spleen, extramedullary hematopoiesis",
307 (RTLNPQMLQKK; listed as Homo sapiens) [compound 307],,"colon or rectum, testis, seminoma",1
240 (EEVKEEVKKF; listed as Homo sapiens) [compound 240],,"lung, non-small cell lung carcinoma, thymus, thymoma",2
32 (TQYIIHNY; listed as Homo sapiens) [compound 32],1,"stomach, skin, basal cell carcinoma",
226 (LPFSLAHL; listed as Homo sapiens) [compound 226],1,atypical lipoma,
48 (LLDHAPPEI; listed as Homo sapiens) [compound 48],3,"stomach, adenocarcinoma, non-Hodgkin's; lymphoma, mycosis fungoides",
